Results: PubChem BioAssay AID651640 (Broad Institute, 2012)
The campaign covered roughly 350,000 compounds. About 6,000 (1.7%) were called active. This list was built around the results that the source calls inconclusive (neither active nor inactive); the mix of calls is not that of the screen. Rule as the data show it: active = CPE inhibition above about 20% (passing the limit was not always enough); inconclusive = no clear call, values can overlap the other calls; tested in BHK-21 cells.

test: protection of cells from dengue 2 killing – plate reader, single concentration, primary screen (AID 651640); settings: DENV2-infected cells, cytopathic effect rescue, at 9.99 µM, stronger effect = higher value;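 also: 0% = median of neutral control wells and 100% = median of positive control wells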

SMILES	CPE inhibition
CCC(=O)Nc1ccc2c(c1)C(=O)N(C)C[C@@H](OC)[C@@H](C)CN(Cc1ccccn1)[C@H](C)CO2	inactive: 16.6%
COc1cc(-c2cc(C(=O)N3CCCCCC3)c3ccccc3n2)cc(OC)c1OC	inconclusive: 32.8%
COc1cccc(CN2[C@@H]3CN(C(=O)CC(F)(F)F)c4ccccc4[C@@H]3[C@@H]2CO)c1	inconclusive: 69%
COc1ccccc1Cc1c(-c2ccc(Cl)cc2)nc2ccc(Br)cn12	inactive: -12%
COc1ccc(NC(=O)Nc2ccc3c(c2)CC(=O)N([C@H](C)CO)C[C@@H](C)[C@H](CN(C)S(=O)(=O)c2ccc(F)cc2)O3)cc1	inactive: -5.76%
CC1(C)C=Cc2c(c3c(c4c(=O)c(-c5ccc(O)cc5)coc24)OC(C)(C)CC3)O1	inconclusive: 73.6%
CC(C)[C@H](NS(=O)(=O)c1ccccc1)C(=O)OCC(=O)NC(=O)NC1CCCCC1	inactive: -5.54%
O=C(N[C@H](Cc1ccccc1)C(=O)NC1CCCCC1)[C@H]1O[C@@H](n2ccc(=O)[nH]c2=O)[C@H](O)[C@@H]1O	active: 28.5%
CCCCNc1ccc2c(c1)OC[C@H](Cc1ccccc1)NS2(=O)=O	inconclusive: 42.5%
C[C@H]1CN([C@@H](C)CO)C(=O)Cc2cc(NC(=O)Cc3ccccc3)ccc2O[C@H]1CN(C)Cc1ccccc1	inconclusive: 23.9%
Cc1noc(C)c1NC(=O)Nc1ccc2c(c1)C(=O)N([C@@H](C)CO)C[C@H](C)[C@@H](CN(C)C)OCCCC[C@@H](C)O2	inactive: -9.4%
Cc1noc(C)c1NC(=O)N(C)C[C@H]1Oc2ccc(NS(=O)(=O)c3cccs3)cc2CC(=O)N([C@H](C)CO)C[C@@H]1C	inconclusive: 54.3%
CC(C)(C)c1ccc(-c2cc(NC(=O)Cc3c[nH]c4ccccc34)ccc2Nc2cccnc2)cc1	inconclusive: 53.4%
CC(C)(C)n1nnnc1C(c1ccccc1)N1CCN(CCN2CCOCC2)CC1 (stereo unspecified)	inconclusive: 20.2%
C[C@@H]1CN([C@@H](C)CO)C(=O)Cc2cc(NS(=O)(=O)c3ccccc3)ccc2O[C@H]1CN(C)S(=O)(=O)c1cccs1	inconclusive: 24%
C[C@H]1CN([C@@H](C)CO)C(=O)Cc2cc(NC(=O)Cn3cnnn3)ccc2O[C@H]1CN(C)C(=O)NC1CCCCC1	inconclusive: 63.5%
Cc1ccc(S(=O)(=O)Nc2ccc3c(c2)C(=O)N([C@H](C)CO)C[C@@H](C)[C@@H](CN(C)S(=O)(=O)c2ccc(C)cc2)OCCCC[C@@H](C)O3)cc1	inconclusive: 32.2%
C[C@H](CO)N1C[C@H](C)[C@H](CN(C)Cc2ccccc2)Oc2ccc(NC(=O)CCCCCC(=O)Nc3ccccc3N)cc2CC1=O	active: 58.4%
CC1=C(C(=O)N(C)C)CC(CC(=O)NC2CCCCC2)C(=O)N1Cc1ccc(C(C)(C)C)cc1 (stereo unspecified)	active: 42.9%
COCC#Cc1ccc2c(c1)O[C@@H](CN(C)C(=O)Nc1ccc(OC)cc1)[C@@H](C)CN([C@H](C)CO)S2(=O)=O	inconclusive: 67.1%
Cn1c(SCC(=O)Nc2ccccc2F)nnc1-c1cccs1	inconclusive: 24.3%
COc1ccc(C2=Nc3ccccc3NC(=O)C2N(CCc2cc(OC)cc(OC)c2)C(C)=O)cc1 (stereo unspecified)	inconclusive: 49.7%
C=CCNC(=O)c1cnc2n(c1=O)CCS2	inconclusive: 22.5%
COC(=O)C[C@@H]1C=C[C@@H](NC(=O)Nc2ccc(C(F)(F)F)cc2)[C@@H](CO)O1	inconclusive: 26.5%

SMILES	CPE inhibition
O=C(NCC[C@H]1CC[C@@H](NC(=O)C2CCOCC2)[C@H](CO)O1)c1ccc(F)cc1	inconclusive: 50.5%
COc1ccccc1-c1ccc([C@H]2[C@@H](CO)N(C(=O)C3CCCC3)[C@H]2C#N)cc1	active: 35.8%
O=C(Nc1ccc2c(c1)OCO2)N[C@@H]1CC[C@@H](CCNC(=O)C2CCOCC2)O[C@H]1CO	inactive: 0.694%
CN(C)c1ccc(O)c2c1CC1CC3[C@@H](N(C)C)C(=O)C(C(N)=O)=C(O)[C@]3(O)C(=O)C1=C2O (stereo partly specified)	inactive: -0.383%
C=CCn1c(SCC(=O)Nc2ccc(Cl)cn2)nnc1C1CC1	inconclusive: 104%
O=C(c1ccccc1F)N1CC(=O)N2[C@H](CO)[C@@H](c3ccc(-c4ccc(F)cc4)cc3)[C@H]2C1	inactive: -2.85%
CCc1nc2ccc(C(=O)NCCOc3ccc(OC)cc3)cn2c1N(C)CCCc1ccccc1	inconclusive: 42%
CCOC(=O)C1CCN(S(=O)(=O)c2ccc3[nH]c4c(c3c2)CCCC4)CC1	inconclusive: 27.6%
COCCNC(=O)C[C@H]1CC[C@@H]2[C@@H](COc3ccc(NC(=O)c4cc(C)on4)cc3C(=O)N2C)O1	inconclusive: 75.1%
Cc1cccc(-c2ccc([C@H]3[C@H]4CN(S(=O)(=O)c5ccccc5C)CCCCN4[C@H]3CO)cc2)c1	inactive: 7.45%
COC(C[C@@H](O)CC(=O)[C@@H](C)OCc1ccccc1)OC	inconclusive: 24.8%
Cc1c(Br)cnn1C(C)C(=O)N1CCN(c2ccccc2F)CC1 (stereo unspecified)	inconclusive: 54.3%
C[C@@H]1CN([C@H](C)CO)C(=O)c2cc(C#CCc3ccccc3)cnc2O[C@H]1CN(C)C(=O)C1CCOCC1	inactive: -2.09%
Cc1ccc(-c2ccc3c(c2)O[C@@H](CN(C)C)[C@@H](C)CN([C@@H](C)CO)S3(=O)=O)cc1	inactive: 17.2%
CCCCCOC(=O)C1=C(C)NC(=O)NC1c1ccccc1 (stereo unspecified)	inconclusive: 39.7%
COc1ccc(F)cc1-c1cc(C(=O)NCc2ccc(C(F)(F)F)cc2)[nH]n1	inconclusive: 26.7%
O=C(c1cnccn1)N1CC[C@@H]2[C@H](CO)Nc3ccc(-c4ccccc4)cc3[C@@H]21	inconclusive: 40.3%
NCCCCC(=O)O	inconclusive: 33.2%
O=C(O)c1ccccc1Sc1ncnc2sccc12	inconclusive: 21.9%
CN1c2ccc(-c3ccccc3F)cc2[C@H]2[C@H](CCN2S(=O)(=O)c2ccc(F)cc2)[C@H]1CO	active: 65.3%
Cc1ccc(S(=O)(=O)N(C)C[C@H]2OCc3cn(nn3)CCCC(=O)N([C@@H](C)CO)C[C@H]2C)cc1	inactive: -0.936%
OCCN1CCN(CCCN2c3ccccc3Sc3ccc(C(F)(F)F)cc32)CC1	inconclusive: 46.6%
c1ccc(-c2nc(C3CCCCC3)c3ccccc3n2)cc1	inconclusive: 23.7%
CCCNC(=O)c1c(O)c2cccc3c2n(c1=O)CCC3	inconclusive: 40.7%

SMILES	CPE inhibition
CN(C)C(=O)c1cccc(-c2ccc([C@@H]3[C@@H](C#N)N(C(=O)C4CCC4)[C@@H]3CO)cc2)c1	active: 25.9%
Cn1nc(C(C)(C)C)cc1N1C(=O)CCC1(C)C(=O)Nc1ccc2c(c1)OCCO2 (stereo unspecified)	active: 24.1%
O=C(Nc1ccc(Br)cc1)C1CCCN(C2=NS(=O)(=O)c3ccccc32)C1 (stereo unspecified)	inconclusive: 37%
CCc1nnc(NC(=O)CSc2nc3c([nH]c4ccccc43)c(=O)n2CCOC)s1	inconclusive: 75.3%
S=c1nccc(-c2cccs2)[nH]1	inactive: 2.33%
c1ccc([C@H]2CNCCN2CCc2cccc3ccccc23)cc1	inconclusive: 20.7%
O=C(C[C@H]1CC[C@H]2[C@@H](COC[C@@H](O)CN2C(=O)Nc2cc(Cl)cc(Cl)c2)O1)N1CCCCC1	active: 30.4%
C[C@H](CO)N1C[C@H](C)[C@@H](CN(C)C(=O)Nc2ccc3c(c2)OCO3)Oc2ccc(NC(=O)Nc3ccc(C(F)(F)F)cc3)cc2C1=O	inconclusive: 23%
CS(=O)(=O)N1[C@@H]2c3ccc(-c4ccc(F)cc4)c(=O)n3C[C@H]1[C@H](CO)[C@H]2C(=O)N1CCOCC1	active: 115%
O=C(O)c1ccccc1-c1c2cc(I)c(=O)c(I)c-2oc2c(I)c(O)c(I)cc12	inconclusive: 28.9%
O=C(NCC[C@@H]1CC[C@@H](NS(=O)(=O)Cc2ccccc2)[C@H](CO)O1)C1CCOCC1	inconclusive: 29.7%
CN1c2ccc(Br)cc2[C@H]2[C@H](CCN2C(=O)Nc2ccccc2F)[C@H]1CO	inconclusive: 84.8%
O=C(Nc1ccc(F)cc1)N1CCCCN2[C@H](C1)[C@@H](c1ccc(-c3ccccc3F)cc1)[C@@H]2CO	inactive: -2.3%
CO[C@H]1CN(C)C(=O)c2ccc(NS(=O)(=O)c3ccccc3)cc2OC[C@H](C)N(C(=O)NC(C)C)C[C@H]1C	inactive: 4.75%
COc1ccccc1CNC(=O)C[C@@H]1CC[C@H]2[C@@H](COC[C@@H](O)CN2C(=O)Nc2ccccc2)O1	inactive: -8.6%
COc1cc(/C=N/NC(=O)c2ccncc2)ccc1OCC(=O)Nc1ccccc1	inconclusive: 30.2%
CN(CCc1ccccc1)C(=O)c1ccc(NC(=O)Cc2cccc(NC(=O)C3CCN(S(=O)(=O)c4cccc([N+](=O)[O-])c4)CC3)c2)cc1	inconclusive: 24.7%
Cc1ccc(NC(=S)Nc2ccc(F)cc2)cc1C	inconclusive: 27.8%
COc1ccc(CCC(=O)N2CCN(S(=O)(=O)c3ccc(OC)c([N+](=O)[O-])c3)CC2)cc1	inactive: -0.826%
CO[C@H]1CN(C)C(=O)c2ccc(NC(=O)Cc3ccccc3)cc2OC[C@@H](C)N(C)C[C@@H]1C	inactive: 2.02%
CCOC(=O)C1(C)CCN1C(=O)COc1ccccc1 (stereo unspecified)	inactive: -7.5%
O=C(Nc1cc(F)ccc1F)N1CCCCN2[C@H](CO)[C@H](c3ccc(-c4ccccc4)cc3)[C@H]2C1	active: 62%
O=C([C@@H]1[C@@H](CO)[C@@H]2Cn3c(ccc(-c4ccccc4)c3=O)[C@H]1N2)N1CCCCC1	inconclusive: 20.4%

Looked up above.
O=C(Nc1cc(F)ccc1F)N1CCCCN2[C@H](CO)[C@H](c3ccc(-c4ccccc4)cc3)[C@H]2C1 – CPE inhibition: active: 62%
S=c1nccc(-c2cccs2)[nH]1 – CPE inhibition: inactive: 2.33%
